The values below are quoted from earlier work in paper PMC12015351 (Scientific Reports, 2025).

The test system of series [1] is SARS-CoV-2-induced cytopathic effects in Vero E6. The note with it: live virus; cited from earlier work.
In series [2] the test system is SARS-CoV-2-induced cytopathic effects in human A549 cells (A549/ACE2). The note with it: live virus; cited from earlier work.

On to `CC(C)(C)c1ccc(C(=O)CCCN2CCC(OC(c3ccccc3)c3ccccc3)CC2)cc1` [ebastine], for which the “inhibition of SARS-CoV-2-induced cytopathic effects” value in series [1] and in series [2] was “significant inhibition” in each case.
